This assay deals with alpha-CGRP (Bachem) standard (UniProt P06881). Briefly: MSD sandwich immunoassay; CGRP standard spiked into matrices; biotin-Antibody I capture, Sulfo-Tag CA11 detection.

Amino acid sequences for entries named in this document (tags omitted). Residues count along the entry.
UniProt P06881, residues 83-119: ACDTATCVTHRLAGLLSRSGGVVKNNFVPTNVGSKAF

These are yes or no findings as the source states them, for the method shown. Some binding calls cover weakened binding; strength is not graded here.

B1: CA11 antibody (mouse IgG1/kappa) (antibody, V domains shown)
VH: EVQLQQSGPELVKPGASVKMSCKASGYTFTRSVMHWVKQKPGQGLEWIGYINPYNDGTKYNEKFKGKATLTSDKSSSTAYMELSSLTSEDSAVYYCAKSGNDGYWGQGTTLTVSS
VL: EIVLTQSPTTMAASPGEKITITCSASSSISSIYLHWYQQKPGFSPKVLIYRAKNLASGVPARFSGSGSGTSYSLTIGTMEAEDVATYYCQQGSTIPFTFGSGTKLEIKR
As for B1, the binding result is “binds”.

Values taken from patent publication US20190031748A1.
